From PubChem BioAssay AID504648 (National Center for Advancing Translational Sciences (NCATS), 2011)
Several values for one entry are separate records, joined by “and”; a condition that tells them apart may be missing. Equal entries are not always repeated. Hit rate of the full screen: of about 390,000 compounds, about 610 (0.16%) were called active. The inconclusive results got no clear call from the source; some entries with a clear call stand among them for comparison. Calls follow the shape of the dose curve; as a rule, active = well fitted inhibition curve with a large enough effect; inconclusive = small, poorly fitted or top-dose-only effect, or effect the other way, or another doubt; inactive = no such curve, though single readings can be large or run the other way. Potencies of inconclusive entries are doubtful fits and often do not repeat.

Assay: Nrf2 qHTS screen for inhibitors: counterscreen for cytotoxicity
Conditions: A549 ARE-Fluc cells, CellTiter-Fluor viability, 18-24 h; series mostly up to 46 µM; activity change, negative = cytotoxicity: at the top concentration
Text: NIH Molecular Libraries Probe Production Network [MLPCN]
NIH Chemical Genomics Center [NCGC]
Assay Provider: Shyam Biswal, Johns Hopkins University
Nrf2 is a transcription factor that maintains cellular redox homoestasis and protects cells from xenobiotics. Nrf2 binds to the antioxidant response element (ARE) to induce gene expression of a broad spectrum of genes that encode for antioxidants. […] Finding a small molecule that act as an inhibitor of Nrf2 function would represent a novel therapeutic target that could lead to improvement in survival of patients undergoing chemo- and/or radio- therapy.
So here we implemented a counterscreen to weed out the cytotoxic compounds.
1. Shibata, T., et al., Genetic Alteration of Keap1 Confers Constitutive Nrf2 Activation and Resistance to Chemotherapy in Gallbladder Cancer. Gastroenterology, 2008.
2. Sjoblom, T., et al., The consensus coding sequences of human breast and colorectal cancers. Science, 2006. 314(5797): p. 268-74.
NCGC Assay Protocol Summary:
A concentration-response assay was performed with A549 ARE_Fluc cells which are suspended in 5% FBS OPTI-MEM. Five uL were dispensed into 1536-well white TC-treated plate using the Kalypsys dispenser to achieve a density of 5000 cells/well in all columns except column 1. The plate is incubated at 37deg C at 5% CO2 for 2 hours before 23 nL of compounds are added with the Kalypsys pin tool equipped with a 1,536-pin array containing 10-nL slotted pins (FP1S10, 0.457-mm diameter, 50.8 mm long; V&P Scientific). The control compounds Budesonide and Staurosporine are both added at a concentration of 2mM and Budesonide is also added as a 1:10 titration, starting at 200uM, to achieve dose-response. After an 18-24 hour incubation at 37deg C at 5% CO2, 5ul of medium is added to column 1. Afterwards 1ul of 5x of CellTiter-Fluor (Promega) is added to every well. The plate is then incubated at 37deg C at 5% CO2 for 30 minutes before they are read on the ViewLux (Perkin Elmer) for a fluorescent read Ex=405(10)/Em=525(10) for a 3 second exposure, 2x binning, and high gain. Then 3 uL of 3x BugLite is dispensed into all wells and the plate is incubated at ambient room temperature for 15 minutes. Afterwards another ViewLux read is performed using the clear filter to get a luminescent read with the settings of 40 second exposure, 2x binning, and high gain. Cytotoxicity is assessed through the first fluorescent read and then biochemical activity against Nrf2 is measured in the luminescent read.
% is scaled to controls: 0 for no effect and ±100 for the full control effect; potency is read from the fitted curve at half-maximal effect.

| Compound | activity change, negative = cytotoxicity | Potency |
| --- | --- | --- |
| O=C1NC(=O)C(=Cc2ccc(N3CCN(C(=O)c4ccccc4)CC3)c([N+](=O)[O-])c2)C(=O)N1 | inactive: -11.3% | – |
| COC(=O)C1=C(c2ccc(-c3ccccc3)c(F)c2)C[C@@H]2CC[C@H]1N2C(=O)NCCOc1ccccc1 | – | inconclusive: 29.1 µM [falling, partial curve, poor fit] |
| OC(CC#CCN1CCCCCC1)(c1ccccc1)C1CCCC1 (configuration not stated) | – | inconclusive: 9.2 µM [falling, partial curve, poor fit] |
| COc1cc([C@@H]2c3cc4c(cc3[C@H](OC(C)=O)[C@H]3COC(=O)[C@H]23)OCO4)cc(OC)c1OC | inactive: -4.1% | – |
| C/C=C1/CC(C)C(C)(O)C(=O)OCC2CCN3CCC(OC1=O)C23 (configuration not stated) | inactive: 0.608% | – |
| Cc1cccc(N2C(=O)NC(=O)/C(=C/c3ccc([N+](=O)[O-])o3)C2=O)c1 | – | inconclusive: 10.3 µM [falling, partial curve, poor fit] |
| CC(=O)O[C@@H]1/C=C/[C@](C)(O)C[C@@H](C)C/C=C/[C@H]2[C@H](O)C(C)=C(C)[C@H]3[C@H](Cc4ccccc4)NC(=O)[C@@]123 | – | inconclusive: 0.164 µM [falling, full curve] |
| Cc1ccc(-n2c(C)nc3ccccc3c2=O)cc1C | – | inconclusive: 16.4 µM [falling, single point] |
| NS(=O)(=O)c1ccc(N=Cc2c(O)n(C3CCCCC3)c(=O)n(C3CCCCC3)c2=O)cc1 | – | inconclusive: 25.9 µM [falling, partial curve, poor fit] |
| Cc1ccc(CN2C(=O)NC(=O)C3(Cc4c(nc5ccccn5c4=O)N4CCCCCC43)C2=O)cc1 (configuration not stated) | – | inconclusive: 20.6 µM [falling, single point] |
| COc1ccc(NC(=O)CN(C)C(=O)CSC(c2ccccc2)c2ccccc2)cc1 | – | inconclusive: 23.1 µM [falling, single point] |
| Cc1ccc(S(=O)(=O)c2nc(-c3ccccc3Cl)oc2N(C)C2CCN(C)CC2)cc1 | – | inconclusive: 2.91 µM [activator, partial curve, poor fit] |
| Cc1c(CC(=O)N2C[C@H]3C[C@@H](C2)c2cccc(=O)n2C3)c(=O)oc2cc(O)c(Cl)cc12 | – | inconclusive: 23.1 µM [activator, single point] |
| Cc1nn2c(=O)cc(N3CCNCC3)nc2s1 | inactive: 11.3% | – |
| C[C@H]1CCC/C=C/[C@@H]2C[C@H](O)C[C@H]2[C@H](O)/C=C/C(=O)O1 | – | inconclusive: 23.1 nM [falling, full curve] and inconclusive: 146 nM [falling, full curve] |
| C[C@H]1CCC/C=C/[C@@H]2C[C@H](O)C[C@H]2[C@@H](O)/C=C/C(=O)O1 | – | inconclusive: 0.92 µM [falling, full curve] |
| O=C(Cc1ccccc1)N1CCN(CC2CC3C=CC2C3)CC1 (configuration not stated) | – | inconclusive: 23.1 µM [activator, partial curve, poor fit] |
| C=CCn1c(O)c(C(=O)CCCCCC)c(=O)[nH]c1=O | – | inconclusive: 29.1 µM [falling, single point] |
| OC(Cn1c2ccccc2c2ccccc21)C[n+]1cccc2ccccc21 (configuration not stated) | inactive: 1.12% | – |

Quoted at random: 2 records from the list.

| Compound | activity change, negative = cytotoxicity | Potency |
| --- | --- | --- |
| O=C1NC(=O)C(=Cc2ccc(N3CCN(C(=O)c4ccccc4)CC3)c([N+](=O)[O-])c2)C(=O)N1 | inactive: -11.3% | – |
| COC(=O)C1=C(c2ccc(-c3ccccc3)c(F)c2)C[C@@H]2CC[C@H]1N2C(=O)NCCOc1ccccc1 | – | inconclusive: 29.1 µM [falling, partial curve, poor fit] |

Further compounds.

| Compound | activity change, negative = cytotoxicity | Potency |
| --- | --- | --- |
| COc1cc2c3cc1Oc1cc(ccc1O)C[C@@H]1c4c(cc(OC)c(O)c4Oc4ccc(cc4)C[C@H]3N(C)CC2)CCN1C | – | active: 8.2 µM |
| C=C1C(C)C2C(Cc3ccccc3)NC(=O)C23C(OC(C)=O)C=CC(C)(O)CC(C)CC=CC3C1O (configuration not stated) | – | inconclusive: 11.6 µM [falling, partial curve] |
| O=C(O)c1cccc2c1NC(c1cccc([N+](=O)[O-])c1)C1CC(Sc3ccccc3[N+](=O)[O-])C(Cl)C21 (configuration not stated) | inactive: -18.3% | – |
| COP(=O)(OC)/C(C=O)=N/Nc1ccc([N+](=O)[O-])cc1 | – | inconclusive: 23.1 µM [falling, single point] |
| CC(C)(O)/C=C/C(=O)C(C)(O)C1C(O)CC2(C)C3CC=C4C(C=C(O)C(=O)C4(C)C)C3(C)C(=O)CC12C (configuration not stated) | – | active: 2.31 µM |
| COc1cc(-n2c(=S)[nH]c3ccccc3c2=O)c(Cl)cc1Cl | – | inconclusive: 13 µM [falling, partial curve, poor fit] |
| O=C(CCN1C(=O)COc2ccccc21)N1CCC2(CC1)OCCO2 | – | inconclusive: 20.6 µM [activator, single point] |
| CC(=O)OC1CCC2(C)C(CCC3C2CC(=O)C2(C)C3CC(N3CC3)C2C(C)=O)C1 (configuration not stated) | – | active: 18.4 µM |
| COc1cccc(-n2c(-c3ccoc3)nc3ccccc3c2=O)c1 | inactive: -21.2% | – |
| O=P(Nc1ccccc1)(Nc1ccccc1)Oc1cccc(Cl)c1 | – | inconclusive: 23.1 µM [falling, single point] |
| COC(=O)C1=C(c2ccccc2OCc2ccccc2)C[C@@H]2CC[C@H]1N2C(=O)NCCOc1ccccc1 | – | inconclusive: 29.1 µM [falling, single point] |
| CN(C)[C@@H]1C(=O)C(C(N)=O)=C(O)[C@@]2(O)C(=O)C3=C(O)c4c(O)ccc(Cl)c4[C@@](C)(O)C3C[C@@H]12 (some centres not stated) | – | inconclusive: 20.6 µM [falling, single point] |
| CN(CC1COc2ccccc2O1)c1nc(-c2cccnc2)nc2ccccc12 (configuration not stated) | – | inconclusive: 29.1 µM [falling, partial curve, poor fit] |
| CCN1CCC(NCC2CCCCC2)CC1 | – | inconclusive: 23.1 µM [falling, single point] |
| CC(C)c1cccc(C(C)C)c1OC(=O)NC(=O)c1c(F)cccc1F | – | inconclusive: 18.4 µM [activator, partial curve, poor fit] |
| CC12CCC(O)CC1CCC1C2CCC2(C)C(C3=CC(=O)OC3)C(O)CC12O (configuration not stated) | – | inconclusive: 5.8 µM [falling, full curve] |
| O=c1[nH]c(=O)n(-c2ccc(F)cc2)c(O)c1C=Nc1ccccc1N1CCCC1 | – | inconclusive: 29.1 µM [activator, partial curve, poor fit] |
| O=C(O)c1ccccc1NS(=O)(=O)c1cccc(N=Nc2c(O)[nH]c(=S)[nH]c2=O)c1 | – | inconclusive: 18.4 µM [falling, partial curve, poor fit] |
